These are yes or no findings as the source states them, for the method shown. Binding seen in cells or lysates may run through a third protein. Some results given as binding are weak or reduced against the parent protein; the word gives no strength.
What follows are substances tested against Swr1, FLAG-tagged catalytic subunit of the SWR1 complex (S. cerevisiae) (UniProt Q05471) (assay: co-IP; FLAG affinity purification of SWR1 (or a subcomplex) from S. cerevisiae, eluted with 3× FLAG peptide; SDS-PAGE (4%-12% Bis-Tris), Coomassie or SYPRO Orange stain; band intensities normalised for protein size for the stoichiometry).

The chains behind the UniProt entries cited, without tags or fusion partners.
UniProt Q05471: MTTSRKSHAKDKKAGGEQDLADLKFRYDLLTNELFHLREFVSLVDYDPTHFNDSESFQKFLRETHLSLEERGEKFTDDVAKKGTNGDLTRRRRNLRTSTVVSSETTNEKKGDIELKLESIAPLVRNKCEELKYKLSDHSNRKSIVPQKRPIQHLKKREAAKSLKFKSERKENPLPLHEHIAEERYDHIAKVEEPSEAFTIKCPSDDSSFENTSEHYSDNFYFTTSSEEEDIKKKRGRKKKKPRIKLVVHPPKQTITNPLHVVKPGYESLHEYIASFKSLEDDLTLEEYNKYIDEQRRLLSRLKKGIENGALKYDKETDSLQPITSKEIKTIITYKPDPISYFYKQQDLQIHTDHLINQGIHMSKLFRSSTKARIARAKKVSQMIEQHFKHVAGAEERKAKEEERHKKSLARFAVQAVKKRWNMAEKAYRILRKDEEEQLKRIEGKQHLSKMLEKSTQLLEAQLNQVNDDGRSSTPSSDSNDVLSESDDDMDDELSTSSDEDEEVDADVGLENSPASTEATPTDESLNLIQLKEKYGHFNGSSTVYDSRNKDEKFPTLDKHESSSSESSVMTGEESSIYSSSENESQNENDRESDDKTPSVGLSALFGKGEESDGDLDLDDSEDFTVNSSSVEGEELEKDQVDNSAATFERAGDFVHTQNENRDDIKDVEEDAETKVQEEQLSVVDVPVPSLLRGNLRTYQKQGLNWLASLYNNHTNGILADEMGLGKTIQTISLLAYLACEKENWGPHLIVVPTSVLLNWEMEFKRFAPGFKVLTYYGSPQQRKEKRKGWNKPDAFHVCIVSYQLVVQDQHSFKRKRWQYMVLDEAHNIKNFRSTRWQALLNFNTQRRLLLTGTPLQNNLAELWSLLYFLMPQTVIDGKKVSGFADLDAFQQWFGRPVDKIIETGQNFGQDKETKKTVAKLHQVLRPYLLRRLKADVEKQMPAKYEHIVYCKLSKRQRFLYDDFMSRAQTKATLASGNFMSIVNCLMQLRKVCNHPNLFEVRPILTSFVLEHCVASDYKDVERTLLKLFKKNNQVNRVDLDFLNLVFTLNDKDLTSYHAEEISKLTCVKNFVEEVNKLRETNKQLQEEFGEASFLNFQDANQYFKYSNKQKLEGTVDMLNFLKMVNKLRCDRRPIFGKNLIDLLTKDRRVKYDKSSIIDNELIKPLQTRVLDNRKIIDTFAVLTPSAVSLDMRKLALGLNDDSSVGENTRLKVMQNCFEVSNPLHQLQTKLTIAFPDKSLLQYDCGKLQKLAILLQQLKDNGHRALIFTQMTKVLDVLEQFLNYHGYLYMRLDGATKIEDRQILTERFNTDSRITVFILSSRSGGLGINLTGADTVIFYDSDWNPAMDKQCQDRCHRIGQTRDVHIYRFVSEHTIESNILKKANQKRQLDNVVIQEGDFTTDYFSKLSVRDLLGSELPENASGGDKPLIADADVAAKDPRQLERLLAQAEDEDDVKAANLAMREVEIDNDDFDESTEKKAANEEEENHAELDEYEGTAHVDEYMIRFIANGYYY
UniProt Q03388: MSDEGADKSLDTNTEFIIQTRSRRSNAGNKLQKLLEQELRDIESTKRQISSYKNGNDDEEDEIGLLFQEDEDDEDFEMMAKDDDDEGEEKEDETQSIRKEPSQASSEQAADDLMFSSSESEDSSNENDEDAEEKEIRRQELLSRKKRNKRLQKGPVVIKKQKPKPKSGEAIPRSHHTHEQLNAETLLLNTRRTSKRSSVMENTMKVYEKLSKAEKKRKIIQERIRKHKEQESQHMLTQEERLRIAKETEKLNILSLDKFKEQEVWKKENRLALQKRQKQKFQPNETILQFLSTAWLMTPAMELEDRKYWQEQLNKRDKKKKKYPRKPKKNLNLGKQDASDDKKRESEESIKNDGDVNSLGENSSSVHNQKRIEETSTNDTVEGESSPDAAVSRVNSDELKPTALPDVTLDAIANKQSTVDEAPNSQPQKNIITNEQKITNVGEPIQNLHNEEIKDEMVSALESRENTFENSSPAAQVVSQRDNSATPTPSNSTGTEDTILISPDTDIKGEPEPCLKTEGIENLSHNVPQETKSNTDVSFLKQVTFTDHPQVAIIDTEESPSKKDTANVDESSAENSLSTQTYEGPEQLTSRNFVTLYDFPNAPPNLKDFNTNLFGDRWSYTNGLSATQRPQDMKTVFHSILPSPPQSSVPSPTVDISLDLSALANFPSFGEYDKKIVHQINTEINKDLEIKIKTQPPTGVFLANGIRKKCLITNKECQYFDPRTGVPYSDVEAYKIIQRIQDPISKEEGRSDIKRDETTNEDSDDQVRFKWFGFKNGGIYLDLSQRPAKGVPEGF
UniProt Q12509: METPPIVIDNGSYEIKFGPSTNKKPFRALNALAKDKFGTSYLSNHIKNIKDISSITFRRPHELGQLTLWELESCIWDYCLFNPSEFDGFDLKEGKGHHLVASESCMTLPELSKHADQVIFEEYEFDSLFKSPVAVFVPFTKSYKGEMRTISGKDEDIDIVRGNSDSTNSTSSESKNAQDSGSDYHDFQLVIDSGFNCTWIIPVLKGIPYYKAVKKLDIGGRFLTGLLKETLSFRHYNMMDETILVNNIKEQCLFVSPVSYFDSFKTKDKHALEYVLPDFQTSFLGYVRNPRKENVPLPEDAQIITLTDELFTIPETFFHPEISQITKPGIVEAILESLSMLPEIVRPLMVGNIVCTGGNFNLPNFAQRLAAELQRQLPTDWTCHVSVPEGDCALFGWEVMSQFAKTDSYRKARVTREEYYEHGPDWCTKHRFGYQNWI
UniProt Q03433: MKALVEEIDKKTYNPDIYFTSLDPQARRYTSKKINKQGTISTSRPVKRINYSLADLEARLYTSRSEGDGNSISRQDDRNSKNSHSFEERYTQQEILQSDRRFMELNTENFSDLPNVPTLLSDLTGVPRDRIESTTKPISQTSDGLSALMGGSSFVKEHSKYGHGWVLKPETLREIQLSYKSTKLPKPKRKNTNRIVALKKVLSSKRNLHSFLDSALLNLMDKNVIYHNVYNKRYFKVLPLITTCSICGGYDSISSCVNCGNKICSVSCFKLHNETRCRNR
UniProt Q06707: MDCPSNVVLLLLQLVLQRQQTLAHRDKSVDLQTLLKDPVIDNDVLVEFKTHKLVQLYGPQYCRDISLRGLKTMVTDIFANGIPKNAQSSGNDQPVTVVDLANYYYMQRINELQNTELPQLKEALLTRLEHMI

| Substance | binding |
| --- | --- |
| Act1 (from UniProt P60010 1-375) | binds |
| Swc2 (from UniProt Q03388 1-795) | binds |

Now from value to substance:

| binding | Substance |
| --- | --- |
| binds | Arp6 (from UniProt Q12509 1-438) |
| binds | Swc6 (from UniProt Q03433 1-280) |
| binds | Swc7 (from UniProt Q06707 1-132) |

— PMC3776929
